Data published in the supplement of paper PMC7666118.
The other results are listed elsewhere or left out.

Protein sequences, listed by entry. Tags and fused reporters are not part of them. Lines headed by an entry give the natural chain unless they say otherwise; changes in a name come on top.
UniProt Q9NPJ8: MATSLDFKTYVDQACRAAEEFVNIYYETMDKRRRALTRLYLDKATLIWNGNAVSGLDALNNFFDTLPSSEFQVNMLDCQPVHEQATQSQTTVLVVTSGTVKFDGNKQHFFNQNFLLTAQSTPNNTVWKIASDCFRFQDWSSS
UniProt Q12769: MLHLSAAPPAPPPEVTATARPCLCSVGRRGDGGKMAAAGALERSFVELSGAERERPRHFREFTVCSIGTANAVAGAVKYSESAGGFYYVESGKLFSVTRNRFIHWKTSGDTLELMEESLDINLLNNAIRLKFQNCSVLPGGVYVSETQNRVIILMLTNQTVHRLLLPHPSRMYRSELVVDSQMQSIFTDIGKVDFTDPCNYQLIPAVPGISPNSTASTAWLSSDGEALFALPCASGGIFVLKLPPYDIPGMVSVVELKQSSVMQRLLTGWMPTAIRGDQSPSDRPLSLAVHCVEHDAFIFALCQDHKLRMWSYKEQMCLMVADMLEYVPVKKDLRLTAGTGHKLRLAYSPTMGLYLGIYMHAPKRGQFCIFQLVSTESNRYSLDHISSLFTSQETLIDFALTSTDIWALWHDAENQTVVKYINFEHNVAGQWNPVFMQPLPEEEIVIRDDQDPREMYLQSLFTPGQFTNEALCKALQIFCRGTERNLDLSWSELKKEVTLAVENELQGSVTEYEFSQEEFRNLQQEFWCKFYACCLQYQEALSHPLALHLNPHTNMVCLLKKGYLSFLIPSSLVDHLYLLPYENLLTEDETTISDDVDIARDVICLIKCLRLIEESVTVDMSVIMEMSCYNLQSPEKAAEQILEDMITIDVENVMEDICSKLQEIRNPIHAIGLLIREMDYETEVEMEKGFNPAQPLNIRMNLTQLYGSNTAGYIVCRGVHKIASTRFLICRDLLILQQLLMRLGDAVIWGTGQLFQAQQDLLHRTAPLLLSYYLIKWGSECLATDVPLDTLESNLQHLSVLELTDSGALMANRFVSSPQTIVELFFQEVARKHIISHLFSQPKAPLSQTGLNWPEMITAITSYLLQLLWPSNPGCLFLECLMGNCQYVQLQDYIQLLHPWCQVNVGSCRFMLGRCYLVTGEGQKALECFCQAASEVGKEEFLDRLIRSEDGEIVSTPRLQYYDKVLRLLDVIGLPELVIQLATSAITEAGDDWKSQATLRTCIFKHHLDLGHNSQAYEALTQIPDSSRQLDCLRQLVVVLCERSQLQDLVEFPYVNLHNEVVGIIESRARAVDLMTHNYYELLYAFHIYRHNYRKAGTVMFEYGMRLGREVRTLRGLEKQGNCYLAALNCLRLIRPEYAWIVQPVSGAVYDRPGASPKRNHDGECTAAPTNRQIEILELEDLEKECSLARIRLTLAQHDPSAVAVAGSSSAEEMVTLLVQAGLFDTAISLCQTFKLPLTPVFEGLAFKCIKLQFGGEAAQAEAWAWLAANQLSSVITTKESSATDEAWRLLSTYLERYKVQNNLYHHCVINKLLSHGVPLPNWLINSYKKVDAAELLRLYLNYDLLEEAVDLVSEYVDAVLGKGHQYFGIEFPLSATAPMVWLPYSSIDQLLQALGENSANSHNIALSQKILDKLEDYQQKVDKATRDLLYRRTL
UniProt Q8WV22: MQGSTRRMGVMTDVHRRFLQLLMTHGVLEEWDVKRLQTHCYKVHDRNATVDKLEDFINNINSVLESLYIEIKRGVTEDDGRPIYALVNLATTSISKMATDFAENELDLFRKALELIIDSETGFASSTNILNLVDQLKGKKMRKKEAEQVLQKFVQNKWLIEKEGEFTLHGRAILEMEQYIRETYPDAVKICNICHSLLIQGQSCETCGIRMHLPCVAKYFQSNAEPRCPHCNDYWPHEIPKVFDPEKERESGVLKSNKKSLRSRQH
UniProt Q8NBM8: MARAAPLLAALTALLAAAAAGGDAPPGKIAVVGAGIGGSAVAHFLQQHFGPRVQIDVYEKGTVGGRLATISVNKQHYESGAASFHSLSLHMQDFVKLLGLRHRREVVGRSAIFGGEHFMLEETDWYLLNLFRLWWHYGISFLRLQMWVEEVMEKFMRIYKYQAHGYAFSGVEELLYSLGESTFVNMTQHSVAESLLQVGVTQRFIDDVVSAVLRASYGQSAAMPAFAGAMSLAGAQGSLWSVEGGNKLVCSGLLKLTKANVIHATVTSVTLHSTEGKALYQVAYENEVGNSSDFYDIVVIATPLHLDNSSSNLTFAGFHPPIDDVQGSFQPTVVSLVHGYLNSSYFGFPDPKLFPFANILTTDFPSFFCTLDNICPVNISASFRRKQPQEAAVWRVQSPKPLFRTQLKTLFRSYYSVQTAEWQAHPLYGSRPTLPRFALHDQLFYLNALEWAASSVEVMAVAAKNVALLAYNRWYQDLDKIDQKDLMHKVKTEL
UniProt P22234: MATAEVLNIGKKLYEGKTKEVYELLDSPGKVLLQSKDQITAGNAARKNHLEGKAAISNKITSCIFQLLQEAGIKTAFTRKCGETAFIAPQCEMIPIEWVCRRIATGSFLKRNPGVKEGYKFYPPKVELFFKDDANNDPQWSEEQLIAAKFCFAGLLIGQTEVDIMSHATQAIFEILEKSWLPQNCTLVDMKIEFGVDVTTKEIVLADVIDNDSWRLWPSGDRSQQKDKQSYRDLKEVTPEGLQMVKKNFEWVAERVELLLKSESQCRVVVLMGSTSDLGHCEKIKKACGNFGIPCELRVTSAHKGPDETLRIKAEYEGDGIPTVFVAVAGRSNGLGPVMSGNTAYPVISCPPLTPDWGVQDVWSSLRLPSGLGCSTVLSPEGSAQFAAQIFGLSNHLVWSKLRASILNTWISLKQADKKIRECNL
UniProt Q504Q3: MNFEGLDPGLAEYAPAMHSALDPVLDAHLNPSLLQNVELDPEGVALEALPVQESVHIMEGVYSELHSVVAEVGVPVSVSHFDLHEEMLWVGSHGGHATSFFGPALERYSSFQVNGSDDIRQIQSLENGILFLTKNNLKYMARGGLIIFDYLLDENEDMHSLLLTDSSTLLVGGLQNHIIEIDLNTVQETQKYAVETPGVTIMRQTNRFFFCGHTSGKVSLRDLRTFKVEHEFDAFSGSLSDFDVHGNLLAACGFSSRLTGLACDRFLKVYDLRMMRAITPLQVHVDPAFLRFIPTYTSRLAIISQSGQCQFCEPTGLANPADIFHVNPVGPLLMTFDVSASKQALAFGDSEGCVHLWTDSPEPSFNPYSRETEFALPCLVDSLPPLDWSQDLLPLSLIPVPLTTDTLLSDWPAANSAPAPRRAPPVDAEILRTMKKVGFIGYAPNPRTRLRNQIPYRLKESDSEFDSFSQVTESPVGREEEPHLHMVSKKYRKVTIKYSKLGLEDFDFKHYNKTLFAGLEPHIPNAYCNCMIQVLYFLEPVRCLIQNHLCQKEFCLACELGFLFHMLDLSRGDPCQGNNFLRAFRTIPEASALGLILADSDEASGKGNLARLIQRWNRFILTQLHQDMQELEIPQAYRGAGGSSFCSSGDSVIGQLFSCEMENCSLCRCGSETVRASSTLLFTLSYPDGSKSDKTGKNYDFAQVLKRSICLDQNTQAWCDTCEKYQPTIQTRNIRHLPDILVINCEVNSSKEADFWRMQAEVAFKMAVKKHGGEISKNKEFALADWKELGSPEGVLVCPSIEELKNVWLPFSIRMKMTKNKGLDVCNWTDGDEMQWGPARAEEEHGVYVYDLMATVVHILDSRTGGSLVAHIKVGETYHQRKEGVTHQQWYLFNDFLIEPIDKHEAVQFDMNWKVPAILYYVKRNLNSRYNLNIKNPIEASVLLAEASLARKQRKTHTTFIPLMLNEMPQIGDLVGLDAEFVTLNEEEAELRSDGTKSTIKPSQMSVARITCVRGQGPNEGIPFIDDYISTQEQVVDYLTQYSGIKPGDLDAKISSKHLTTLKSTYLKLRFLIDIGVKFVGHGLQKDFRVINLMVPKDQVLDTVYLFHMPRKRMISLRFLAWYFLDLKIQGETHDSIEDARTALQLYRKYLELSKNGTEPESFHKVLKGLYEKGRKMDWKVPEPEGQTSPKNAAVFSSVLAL
UniProt Q9NZJ9: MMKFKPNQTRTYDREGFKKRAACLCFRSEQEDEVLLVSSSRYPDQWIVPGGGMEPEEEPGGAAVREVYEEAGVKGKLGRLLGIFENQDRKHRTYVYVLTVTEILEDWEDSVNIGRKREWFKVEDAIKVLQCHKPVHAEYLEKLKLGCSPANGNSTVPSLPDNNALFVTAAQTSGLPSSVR
UniProt Q8NFH3: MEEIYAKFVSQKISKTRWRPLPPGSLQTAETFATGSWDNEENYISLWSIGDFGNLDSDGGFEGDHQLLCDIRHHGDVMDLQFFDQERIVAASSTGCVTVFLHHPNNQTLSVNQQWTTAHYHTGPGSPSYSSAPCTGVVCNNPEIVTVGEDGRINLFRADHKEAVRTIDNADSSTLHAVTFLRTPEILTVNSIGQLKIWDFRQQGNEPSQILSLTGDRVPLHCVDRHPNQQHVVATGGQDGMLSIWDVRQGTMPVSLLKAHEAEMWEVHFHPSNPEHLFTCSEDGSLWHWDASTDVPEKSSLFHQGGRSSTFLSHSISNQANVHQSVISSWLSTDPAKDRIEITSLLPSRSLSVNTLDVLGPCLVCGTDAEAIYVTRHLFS
UniProt Q9H668: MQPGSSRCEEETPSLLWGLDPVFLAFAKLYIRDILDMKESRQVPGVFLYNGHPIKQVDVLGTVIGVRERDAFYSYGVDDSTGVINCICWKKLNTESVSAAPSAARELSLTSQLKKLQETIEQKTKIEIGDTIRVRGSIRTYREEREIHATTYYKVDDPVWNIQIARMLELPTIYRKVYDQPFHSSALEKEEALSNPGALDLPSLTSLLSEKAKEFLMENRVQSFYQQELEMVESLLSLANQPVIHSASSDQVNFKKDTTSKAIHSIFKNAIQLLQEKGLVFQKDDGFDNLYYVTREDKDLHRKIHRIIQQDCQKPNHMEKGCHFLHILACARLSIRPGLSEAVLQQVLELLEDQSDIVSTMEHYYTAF
UniProt Q96P26: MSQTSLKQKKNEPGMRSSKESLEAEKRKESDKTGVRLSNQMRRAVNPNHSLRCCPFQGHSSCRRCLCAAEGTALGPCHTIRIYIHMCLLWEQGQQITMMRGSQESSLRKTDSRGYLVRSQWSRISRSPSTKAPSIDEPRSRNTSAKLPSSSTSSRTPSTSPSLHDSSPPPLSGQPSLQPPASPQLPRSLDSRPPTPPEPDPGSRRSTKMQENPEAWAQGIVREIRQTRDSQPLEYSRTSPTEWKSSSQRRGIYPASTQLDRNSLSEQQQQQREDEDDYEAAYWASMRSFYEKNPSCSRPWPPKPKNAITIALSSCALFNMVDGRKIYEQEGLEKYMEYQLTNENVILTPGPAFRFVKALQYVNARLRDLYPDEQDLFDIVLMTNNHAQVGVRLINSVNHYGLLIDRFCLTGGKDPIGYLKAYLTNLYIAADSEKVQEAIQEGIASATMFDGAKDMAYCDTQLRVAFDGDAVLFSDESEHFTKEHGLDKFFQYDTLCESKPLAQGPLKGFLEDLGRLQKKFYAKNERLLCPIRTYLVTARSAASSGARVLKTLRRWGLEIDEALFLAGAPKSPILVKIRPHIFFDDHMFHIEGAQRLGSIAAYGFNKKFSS
UniProt O00628: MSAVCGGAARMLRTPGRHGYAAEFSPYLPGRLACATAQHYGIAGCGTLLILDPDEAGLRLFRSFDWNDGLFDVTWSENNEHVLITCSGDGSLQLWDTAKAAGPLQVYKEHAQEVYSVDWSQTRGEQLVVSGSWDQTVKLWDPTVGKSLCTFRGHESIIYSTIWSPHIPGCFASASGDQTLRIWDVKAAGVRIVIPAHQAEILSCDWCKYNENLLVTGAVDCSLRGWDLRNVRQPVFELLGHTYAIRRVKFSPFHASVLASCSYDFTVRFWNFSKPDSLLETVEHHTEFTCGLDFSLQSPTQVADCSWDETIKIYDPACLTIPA
UniProt Q99447: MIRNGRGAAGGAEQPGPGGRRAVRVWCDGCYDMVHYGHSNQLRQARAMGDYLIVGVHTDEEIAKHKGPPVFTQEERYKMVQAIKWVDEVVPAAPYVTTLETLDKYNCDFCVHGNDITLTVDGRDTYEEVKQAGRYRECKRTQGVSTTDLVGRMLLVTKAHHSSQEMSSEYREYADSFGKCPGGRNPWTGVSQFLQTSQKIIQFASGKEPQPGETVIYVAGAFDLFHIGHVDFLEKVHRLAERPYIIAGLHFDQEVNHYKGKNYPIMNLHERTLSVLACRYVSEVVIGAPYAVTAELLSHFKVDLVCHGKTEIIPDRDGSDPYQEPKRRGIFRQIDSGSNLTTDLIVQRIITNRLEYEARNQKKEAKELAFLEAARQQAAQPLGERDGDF
UniProt P61457: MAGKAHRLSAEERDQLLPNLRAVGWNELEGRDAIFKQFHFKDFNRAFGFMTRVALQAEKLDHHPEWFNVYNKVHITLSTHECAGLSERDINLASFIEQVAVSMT

These targets were tested with COc1ccc(Cn2ccc3ccc(C(=O)NO)cc32)cc1 (assay: dose-dependent thermal stabilisation call (2D-TPP, DLPTP, 10% FDR) (binary (1 = stabilised)); higher = stabilised by the compound). Conditions: system: HL-60 intact cells; concentration range 0.04-10 µM.

| Target | dose-dependent thermal stabilisation call |
| --- | --- |
| OXA1L (UniProt Q15070) | inactive: 0 |
| NXT2 (UniProt Q9NPJ8) | inactive: 0 |
| PDHB (UniProt P11177) | inactive: 0 |
| NUDT8 (UniProt Q8WV74) | inactive: 0 |
| NRBP1 (UniProt Q9UHY1) | inactive: 0 |
| PEX14 (UniProt O75381) | inactive: 0 |
| PCTP (UniProt Q9UKL6) | inactive: 0 |
| PASK (UniProt Q96RG2) | inactive: 0 |
| NUP160 (UniProt Q12769) | inactive: 0 |
| NSMCE1 (UniProt Q8WV22) | inactive: 0 |
| OCRL (UniProt Q01968) | inactive: 0 |
| PAPOLG (UniProt Q9BWT3) | inactive: 0 |
| NUP188 (UniProt Q5SRE5) | inactive: 0 |
| ORC3L (UniProt Q9UBD5) | inactive: 0 |
| P76 | inactive: 0 |
| PATL1 (UniProt Q86TB9) | inactive: 0 |
| NUP205 (UniProt Q92621) | inactive: 0 |
| PDHA1 (UniProt P08559) | inactive: 0 |
| PCYOX1L (UniProt Q8NBM8) | inactive: 0 |

| Target | dose-dependent thermal stabilisation call |
| --- | --- |
| PAICS (UniProt P22234) | inactive: 0 |
| NSMCE4A (UniProt Q9NXX6) | inactive: 0 |
| OMA1 (UniProt Q96E52) | inactive: 0 |
| PDK1 (UniProt Q15118) | inactive: 0 |
| PAN2 (UniProt Q504Q3) | inactive: 0 |
| NUDT4 (UniProt Q9NZJ9) | inactive: 0 |
| PCNA (UniProt P12004) | active: 1 |
| ORMDL2 (UniProt Q53FV1) | inactive: 0 |
| PARP10 (UniProt Q53GL7) | inactive: 0 |
| NRAS (UniProt P01111) | inactive: 0 |
| PDE5A (UniProt O76074) | inactive: 0 |
| NUP43 (UniProt Q8NFH3) | inactive: 0 |
| OBFC1 (UniProt Q9H668) | inactive: 0 |
| PARP4 (UniProt Q9UKK3) | inactive: 0 |
| NT5C1B (UniProt Q96P26) | inactive: 0 |
| OTUD6B (UniProt Q8N6M0) | inactive: 0 |
| PEX7 (UniProt O00628) | inactive: 0 |
| PCYT2 (UniProt Q99447) | inactive: 0 |
| PCBD1 (UniProt P61457) | inactive: 0 |

Reformatted with each value named: part of the list above
PCYOX1L (UniProt Q8NBM8)
  dose-dependent thermal stabilisation call: inactive: 0
PAICS (UniProt P22234)
  dose-dependent thermal stabilisation call: inactive: 0
